Laboratory results published in the supplement of paper PMC3334620.
The full ranking holds about 33,000 sequences; the median of “E-score (-0.5 to 0.5)” is about -0.0034, and the highest 2% start at about 0.25. The list shows a part of the results.

These sequences were tested against T1, Yap3 (UniProt P38749) (assay: PBM E-score (8-mer binding enrichment) (E-score (-0.5 to 0.5)); higher = stronger / more preferred TF binding). Conditions: protein concentration: 100 nM; construct: GST-full length.
T1 sequence: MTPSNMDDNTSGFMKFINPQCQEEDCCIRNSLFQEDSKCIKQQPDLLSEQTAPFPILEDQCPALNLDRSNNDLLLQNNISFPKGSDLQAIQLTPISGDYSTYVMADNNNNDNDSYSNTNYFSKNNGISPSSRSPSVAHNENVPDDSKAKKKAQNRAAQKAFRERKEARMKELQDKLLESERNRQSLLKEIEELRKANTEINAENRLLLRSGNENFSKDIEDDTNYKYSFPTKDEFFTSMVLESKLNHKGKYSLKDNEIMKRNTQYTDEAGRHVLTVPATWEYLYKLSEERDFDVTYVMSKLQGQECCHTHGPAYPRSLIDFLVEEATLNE
Summary of the method: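 Yeast transcription factors carrying a GST tag, as full-length proteins or DNA-binding domains, were produced by PURExpress in vitro transcription/translation. About 100-200 nM protein was applied to universal all-10-mer Agilent arrays, double-stranded by primer extension on fresh or once-stripped slides. Bound protein was detected with fluorescent anti-GST, and scans were normalised with masliner. The Universal PBM Analysis Suite gave each ungapped eight-base word, pooled with its reverse complement, an E-score, a modified Wilcoxon-Mann-Whitney statistic.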

Sequence	PBM E-score
CATACATA	0.21
AAGGTCCT	-0.173
AGACAGGC	-0.158
ATACACGA	0.0474
AGTGTTCG	0.0439
AATAACGA	0.166
CGATACCC	-0.111
CGTGCACG	0.0737
CTACCACC	-0.228
GTGACCCA	-0.167
ATCCGCGG	0.0321
CCACCACC	-0.212
AATTGAAT	0.191
CGACCACC	-0.11
ATAATAGA	0.184
GATGTTTA	0.055
CACAGACC	0.182
GCATCAGC	-0.0511
TAGCATCA	0.192
TCCCAAAA	0.0977
AATCTAGC	-0.0397
CTCCGTTC	-0.0153
ACGGCCAA	0.104
AGCAACTC	-0.00764
CGTCTCGC	-0.0754

Sequence	PBM E-score
AATCTGAA	0.106
CAAGCAGG	-0.136
ATTTATCC	0.199
AGAACCCG	-0.153
TAAAATTA	0.28
CCTTACGA	0.0364
ATCTCTAA	0.0664
TCATAACA	0.182
GGCGTGGA	-0.165
ACAGATCA	0.151
CACTCTCA	0.0588
GAAATTAA	0.342
CACATAGA	-0.0005
TCTCACAA	0.225
AAAGGCTC	-0.273
ACCTCTTA	0.176
CAGTTGGA	-0.0132
GACTATCA	-0.0199
CGTCGATA	0.0961
ATCAAAAC	0.101
CTGATTCA	0.0545
GGAAGTCC	-0.203
GATGTAGC	-0.183
ATCAGACC	-0.0796
AATATGCA	0.0838

Laid out differently: results already given
Sequence | PBM E-score
CCACCACC | -0.212
GATGTTTA | 0.055
ATCTCTAA | 0.0664
GGCGTGGA | -0.165
CACTCTCA | 0.0588

The listing continues:

Sequence	PBM E-score
AATGAGCT	0.0573
ATCGCAAC	-0.029
GACAGCAA	0.0356
ACTGGTCG	-0.125
ACGATCTA	-0.106
CTGGACCC	-0.294
GATCGCAC	-0.0294
ACTCAAGC	-0.0344
CGGTAAAG	0.0182
GAAGAGTC	-0.123
CCCTGATA	-0.0063
GCCTCATA	-0.0285
ACGAGGGC	-0.14
AGTAATCC	0.102
AGGGCGAG	-0.28
ATGTTAAA	0.196
CATTGCCC	-0.105
ACGGATGG	0.00048
AAAGATTA	0.19
CGCTCTTC	-0.066
ATGAGCGC	0.0791
GATTCCGA	0.0892
AAACTAGT	0.0395
GGACAGAA	0.0573
CAGACTCA	-0.054

Sequence	PBM E-score
GTACACCA	0.0388
CATCCCGC	-0.0818
ACTCGCCG	0.185
GGACGATA	0.0144
CGTCGCGC	0.0641
ATACGAGG	-0.0166
AGCCGCGA	-0.123
GATGCAAC	-0.1
CGTTCAAC	0.061
CTTGCTGC	-0.0855
ACACGAAG	0.178
AGGAAAGG	-0.262
CTAGATCA	0.023
ACCGTGAG	-0.168
TTAAGGAA	0.0474
ACGTTATG	0.219
GCTTATTA	0.232
CATGGCTA	0.0103
TCGCCTAA	-0.0472
CCTAACAG	0.0154
CGCAGTAC	-0.0611
GACGGGCA	-0.12
AACTCGAA	0.0615
AGCTCATC	-0.162
CACTTGGG	-0.102

Sequence	PBM E-score
ACCCGGGT	-0.12
TAACGGAA	0.276
CCCGAACG	-0.207
CAAAATGG	0.0299
AGCGCTTC	0.121
ATGGCAAG	0.0932
AGTATCAG	0.0631
AAGAGCAT	0.0619
ACATGGTG	0.125
ACGGGACC	-0.236
CTCGAGGA	0.0636
AACCCATG	0.0214
CTTTGAGA	0.0765
ATTCCGCA	-0.0554
AAATGTTC	0.00069
CTAAAAGC	-0.0167
CCCCCTTC	-0.392
CGTTACGC	0.0231
CAACATTC	-0.136
TGCCACAA	0.12
ATCACATG	0.0675
ACAACGGA	0.219
AGCTGCCC	0.0142
AGCGTAGA	-0.136
AATCAGGA	0.0679

Taken from above:
AGCGCTTC – PBM E-score: 0.121
CAACATTC – PBM E-score: -0.136
TGCCACAA – PBM E-score: 0.12
ACGGGACC – PBM E-score: -0.236
CAAAATGG – PBM E-score: 0.0299
ATTCCGCA – PBM E-score: -0.0554

Later entries:

Sequence	PBM E-score
ATAAGTGA	0.217
GCCAATAC	-0.00302
GACCCGCC	-0.0838
CTACATAG	0.102
CTGATCCC	-0.125
ACCACGAC	0.00765
GCTTGCGA	0.0537
ATTCATTG	0.119
CCCCTCGG	-0.319
AAGCTCAC	-0.114
AGATGGCT	0.021
AAATTCTG	0.238
GGCACGAC	-0.118
AAGATTGG	0.166
CACAGCTC	-0.0394
AGAGACTA	-0.0471
CAACTTCC	0.0121
ACCTAGTG	0.0364
TCTTGCCA	-0.0338
TCAGGGAA	-0.00645
AGTTTGCA	-0.0725
GCGCCATA	-0.0743
AAATGCAG	0.0779
CCGATCCC	-0.215
CGTCGTAA	0.158

Sequence	PBM E-score
AATGGGTC	-0.143
CACAGATC	-0.0115
ACCATAAT	0.264
CCCAGGCG	-0.257
CTCTTCTC	-0.164
ACTTGCTC	0.0278
CATTCACA	0.163
CATGTTTA	0.062
CCGGCAAA	-0.0508
ACACCATC	0.0118
AGCACAAT	0.075
GTAATAAA	0.266
GTCAGTTA	0.113
CATGTGGG	0.0506
AACGGTTC	-0.139
CACAGTGA	0.107
ACCTGTTC	0.0586
AAAGACAA	0.261
ACCGACGT	-0.0126
GCACGTTA	0.0328
ATCTACTG	0.165
GTTGTTGA	0.216
CGCTTTAG	0.0403
GATTTGTA	0.22
TAGAAATA	0.187

Sequence	PBM E-score
TGGTCGAA	-0.253
AGTGAACA	0.0855
AGAATGCC	-0.00977
ACGGCCGA	0.105
CAGCGTCG	-0.112
CCAGAGCC	-0.0868
CGCTTCTC	0.0685
GACTAATA	0.326
ATGTAAGG	0.129
ACGGATAG	0.176
GGAACTGA	-0.29
CAAACCCG	-0.13
AGTTAGCC	-0.00915
ACCTGTCC	-0.0992
CTGGCCAC	-0.00813
GATCTATA	-0.0784
CCATATGC	0.00556
CGCTGGCA	-0.0684
CAGCATCG	-0.185
AGGGATTC	-0.0816
CCTATTAG	-0.00489
CCCCATAA	0.00096
GAAATGAC	0.259
AATATGCG	0.0969
AATTTTGC	0.0763

Sequence	PBM E-score
AAGCCCTG	-0.264
CCCATTCG	-0.0108
GCCGGAGC	-0.281
CCACTATA	0.132
GTTTCCGA	0.105
GCAGGACC	-0.163
CTTCTCGA	0.0974
CTAAACGA	-0.0241
AACGCCGG	-0.126
AAGTGTGT	0.0034
GGAAAGGA	-0.152
GACCTAAC	0.0581
CGAGGACA	0.0269
AGTCTGAT	-0.113
GAGACACC	-0.196
GGCTTCAC	-0.172
GCCGATGA	-0.102
ATGCCCAA	-0.00275
ACGCGATC	0.185
